Source: US12102089B2, “Method for inactivating mold spores” (DSM IP ASSETS B.V., priority 2017, dated 2024)
This continues a long series; more values of the same kind are listed elsewhere.

Tested on: in-house strain of Aspergillus niger
Test: Heat treatment of in-house Aspergillus niger spores in ice tea with natamycin, visual growth
Assay type: cell-based
Set-up: key: growth (+); no growth (−)
Method: Commercially available ice tea (Lipton, peach flavor, non-carbonated, 1.5 L) was adjusted to high water hardness by adding 1 ml of a solution of 39 g CaCl2 and 27 g MgCl2 added to 934 g water. ⅓ of this ice tea preparation (the pH of which was 3.15) was left as-such, ⅓ of the preparation was enriched with 5 ppm natamycin and ⅓ of the preparation was enriched with 10 ppm natamycin. Samples of 5 ml were made from each preparation in 15 ml sterile plastic tubes. Of each preparation 8 samples were pre-heated to the desired pasteurization temperature using a water bath. Temperatures used were RT, 60, 65, 70, 75, 80, 85 and 90° C. When the desired temperature was reached, 100 μl of a 2500 spores/ml spore suspension of Aspergillus niger ATCC 9029AA was added to each tube. Subsequently, the samples were kept for 30 seconds at the temperature in question in the water bath. Next, the samples were cooled on ice to a temperature of 25° C. Samples were incubated at 25° C. and visually examined for growth (formation of mold flakes or turbidity) for two months. Additionally, samples were enumerated according to ISO protocol 21527-1.2008 on day 0 (before heat treatment) and day 1 (after heat treatment) to count immediate loss of viability. […] For the results, see Table 1. […] For comparative reasons, Example 1 was repeated with an in-house strain of Aspergillus niger. […] For the results, see Table 2.

## C[C@@H]1C/C=C/C=C/C=C/C=C/[C@H](O[C@@H]2O[C@H](C)[C@@H](O)[C@H](N)[C@@H]2O)C[C@@H]2O[C@](O)(C[C@@H](O)C[C@H]3O[C@@H]3/C=C/C(=O)O1)C[C@H](O)[C@H]2C(=O)O [natamycin]
75°C, 10 ppm, day 1
  growth or no growth: −
75°C, 10 ppm, day 2
  growth or no growth: −
75°C, 10 ppm, day 3
  growth or no growth: −
75°C, 10 ppm, day 4
  growth or no growth: −
75°C, 10 ppm, day 5
  growth or no growth: −
75°C, 10 ppm, day 6
  growth or no growth: −
75°C, 10 ppm, day 7
  growth or no growth: −
75°C, 10 ppm, day 8
  growth or no growth: −
75°C, 10 ppm, day 11
  growth or no growth: −
75°C, 10 ppm, day 12
  growth or no growth: −
75°C, 10 ppm, day 13
  growth or no growth: −
75°C, 10 ppm, day 14
  growth or no growth: −
80°C, 5 ppm, day 1
  growth or no growth: −
80°C, 5 ppm, day 2
  growth or no growth: −
80°C, 5 ppm, day 3
  growth or no growth: −
80°C, 5 ppm, day 4
  growth or no growth: −
80°C, 5 ppm, day 5
  growth or no growth: −
80°C, 5 ppm, day 6
  growth or no growth: −
80°C, 5 ppm, day 7
  growth or no growth: −
80°C, 5 ppm, day 8
  growth or no growth: −
80°C, 5 ppm, day 9
  growth or no growth: −
80°C, 5 ppm, day 10
  growth or no growth: −
80°C, 5 ppm, day 11
  growth or no growth: −
80°C, 5 ppm, day 12
  growth or no growth: −
80°C, 5 ppm, day 13
  growth or no growth: −
80°C, 5 ppm, day 14
  growth or no growth: −
80°C, 10 ppm, day 1
  growth or no growth: −
80°C, 10 ppm, day 2
  growth or no growth: −
80°C, 10 ppm, day 3
  growth or no growth: −
80°C, 10 ppm, day 4
  growth or no growth: −
80°C, 10 ppm, day 5
  growth or no growth: −
80°C, 10 ppm, day 6
  growth or no growth: −
80°C, 10 ppm, day 7
  growth or no growth: −
80°C, 10 ppm, day 8
  growth or no growth: −
80°C, 10 ppm, day 9
  growth or no growth: −
80°C, 10 ppm, day 10
  growth or no growth: −
80°C, 10 ppm, day 11
  growth or no growth: −
80°C, 10 ppm, day 12
  growth or no growth: −
80°C, 10 ppm, day 13
  growth or no growth: −
80°C, 10 ppm, day 14
  growth or no growth: −
85°C, 5 ppm, day 1
  growth or no growth: −
85°C, 5 ppm, day 2
  growth or no growth: −
85°C, 5 ppm, day 3
  growth or no growth: −
85°C, 5 ppm, day 4
  growth or no growth: −
85°C, 5 ppm, day 5
  growth or no growth: −
85°C, 5 ppm, day 6
  growth or no growth: −
85°C, 5 ppm, day 7
  growth or no growth: −
85°C, 5 ppm, day 8
  growth or no growth: −
85°C, 5 ppm, day 9
  growth or no growth: −
85°C, 5 ppm, day 10
  growth or no growth: −
85°C, 5 ppm, day 11
  growth or no growth: −
85°C, 5 ppm, day 12
  growth or no growth: −
85°C, 5 ppm, day 13
  growth or no growth: −
85°C, 5 ppm, day 14
  growth or no growth: −
85°C, 10 ppm, day 1
  growth or no growth: −
85°C, 10 ppm, day 2
  growth or no growth: −
85°C, 10 ppm, day 3
  growth or no growth: −
85°C, 10 ppm, day 4
  growth or no growth: −
85°C, 10 ppm, day 5
  growth or no growth: −
85°C, 10 ppm, day 6
  growth or no growth: −
85°C, 10 ppm, day 7
  growth or no growth: −
85°C, 10 ppm, day 8
  growth or no growth: −
85°C, 10 ppm, day 9
  growth or no growth: −
85°C, 10 ppm, day 10
  growth or no growth: −
85°C, 10 ppm, day 11
  growth or no growth: −
85°C, 10 ppm, day 12
  growth or no growth: −
85°C, 10 ppm, day 13
  growth or no growth: −
85°C, 10 ppm, day 14
  growth or no growth: −
90°C, 5 ppm, day 1
  growth or no growth: −
90°C, 5 ppm, day 2
  growth or no growth: −
90°C, 5 ppm, day 3
  growth or no growth: −
90°C, 5 ppm, day 4
  growth or no growth: −
90°C, 5 ppm, day 5
  growth or no growth: −
90°C, 5 ppm, day 6
  growth or no growth: −
90°C, 5 ppm, day 7
  growth or no growth: −
90°C, 5 ppm, day 8
  growth or no growth: −
90°C, 5 ppm, day 9
  growth or no growth: −
90°C, 5 ppm, day 10
  growth or no growth: −
90°C, 5 ppm, day 11
  growth or no growth: −
90°C, 5 ppm, day 12
  growth or no growth: −
90°C, 5 ppm, day 13
  growth or no growth: −
90°C, 5 ppm, day 14
  growth or no growth: −
90°C, 10 ppm, day 1
  growth or no growth: −
90°C, 10 ppm, day 2
  growth or no growth: −
90°C, 10 ppm, day 3
  growth or no growth: −
90°C, 10 ppm, day 4
  growth or no growth: −
90°C, 10 ppm, day 5
  growth or no growth: −
90°C, 10 ppm, day 6
  growth or no growth: −
90°C, 10 ppm, day 7
  growth or no growth: −
90°C, 10 ppm, day 8
  growth or no growth: −
90°C, 10 ppm, day 9
  growth or no growth: −
90°C, 10 ppm, day 10
  growth or no growth: −
90°C, 10 ppm, day 11
  growth or no growth: −
90°C, 10 ppm, day 12
  growth or no growth: −
90°C, 10 ppm, day 13
  growth or no growth: −
90°C, 10 ppm, day 14
  growth or no growth: −
RT, 5 ppm, day 1
  growth or no growth: −
RT, 5 ppm, day 2
  growth or no growth: −
RT, 5 ppm, day 3
  growth or no growth: −
RT, 5 ppm, day 4
  growth or no growth: −
RT, 5 ppm, day 5
  growth or no growth: −
RT, 5 ppm, day 6
  growth or no growth: −
RT, 5 ppm, day 7
  growth or no growth: +
RT, 5 ppm, day 8
  growth or no growth: +
RT, 5 ppm, day 9
  growth or no growth: +
RT, 5 ppm, day 10
  growth or no growth: +
RT, 5 ppm, day 11
  growth or no growth: +
RT, 5 ppm, day 12
  growth or no growth: +
RT, 5 ppm, day 13
  growth or no growth: +
RT, 5 ppm, day 14
  growth or no growth: +
RT, 10 ppm, day 1
  growth or no growth: −
RT, 10 ppm, day 2
  growth or no growth: −
RT, 10 ppm, day 3
  growth or no growth: −
RT, 10 ppm, day 4
  growth or no growth: −
RT, 10 ppm, day 5
  growth or no growth: −
RT, 10 ppm, day 6
  growth or no growth: −
RT, 10 ppm, day 7
  growth or no growth: −
RT, 10 ppm, day 8
  growth or no growth: −
RT, 10 ppm, day 9
  growth or no growth: −
RT, 10 ppm, day 10
  growth or no growth: −
RT, 10 ppm, day 11
  growth or no growth: +
RT, 10 ppm, day 12
  growth or no growth: +
RT, 10 ppm, day 13
  growth or no growth: +
RT, 10 ppm, day 14
  growth or no growth: +
